This passage reports growth estimate results from the supplement of paper PMC5949888.

Most values lie at the floor of the assay. Slopes are relative: functional sequences can read slightly below zero. Some results are limits rather than exact numbers.

In this series the test system is Saccharomyces cerevisiae PS128 hsf1 delta, HSF1(1-493) fusion. The experiment in a line: growth estimate (transactivation domain function in HSF1 fusion, heat-shock survival) (a.u. (slope of normalised read count over time)); higher = stronger growth at 37°C, i.e. more transactivation activity. The note with it: library: random library.
As for TLMFVGEG, the growth estimate was less than -0.25. As to GRG, the growth estimate is less than -0.25. To GGTWLS belongs less than -0.25; to GLLHEGIQMVGYVPPSMRFL, less than -0.25. For CCI the value was less than -0.25.

As to GKP, the growth estimate is less than -0.25. To VDSAA belongs less than -0.25. On to GLKFCQR, for which the growth estimate was less than -0.25.

For the substance SRVRLACVPVCHTGLTYQCS, the growth estimate was less than -0.25. For MSIREKSDKRCAVAR the value was less than -0.25; for RGGLANTRKECATSRTRILP, less than -0.25. For ALPSIGLLADRRTGYAGRLS the value was less than -0.25; for THQRGCNRQVPGRIQSLW, less than -0.25; for SKSHGQGVARLNNISTTS, less than -0.25. To TGF belongs less than -0.25; to RRICGV, less than -0.25; to VRAA, less than -0.25. Regarding CRKARC, the growth estimate is less than -0.25. To AIR belongs less than -0.25. For NPVIGACPGCYLLIRRYLCE the value was less than -0.25; for FNLRLRLV, less than -0.25.

For CAS, the growth estimate was less than -0.25. To ALWSSHHREKNVRALRGHSC belongs less than -0.25; to DTGGTTGAIFCRAFREV, -0.246; to SDLGGSLVSDY, less than -0.25. For GRIRNNCVDTTRIDRVDGIV the value was less than -0.25. For VSCRI the value was less than -0.25; for ILTAHQSQLVPCEVLATCDG, less than -0.25.

As for LRNGFTLLLPNVYPVSRLLQ, the growth estimate is less than -0.25. For LDDGIDATLEDRVSSPWLAE the value was -0.0911; for RVPENCSIAVNEASSRLDVE, less than -0.25; for EQEKWQRVIVL, -0.245. Consider NRSGWNALCG, for which the growth estimate is less than -0.25.

With PISVSVCNVPPNDAREGSRL, the growth estimate was less than -0.25. To TGRGAPTARLEGTVMGSRVR belongs less than -0.25. For KLCGV the value was less than -0.25. To SGLCSSTSRAEEGKAQMNCV belongs less than -0.25; to YPNPVSTHATISLIVVFVMR, less than -0.25; to SMK, less than -0.25.

Turning to PHQTQEVCACPLGGNRGSER, the growth estimate was less than -0.25.

Consider QTIYARRGNEYCRVSSRSDI, for which the growth estimate was less than -0.25.

Consider VLMG, for which the growth estimate was less than -0.25. As to EPGSVVNTPPNESNSRTQPS, the growth estimate is less than -0.25. To RIIAPEGR belongs less than -0.25; to PSDARSKLLVRIHTKTAPRQ, less than -0.25. To AGG belongs less than -0.25; to TFGPRKL, less than -0.25. For TLICMGYFAAYLPNNQWPRM the value was less than -0.25; for SLQRRPFRSPE, less than -0.25; for PLLLESLCSTSRHFAGPLWP, less than -0.25. As for PRVHLSHRGSA, the growth estimate is less than -0.25. For TKARASDFSKPAC the value was less than -0.25. For WLRRRCHTHKGNE the value was less than -0.25.

For PATSITFTLRSGSGD, the growth estimate is less than -0.25. To LGKKSMAPEWSPIVTGLELP belongs less than -0.25; to GAQSDLVYSFVQTVFGLSLW, less than -0.25; to VLTSNHLGHCLFQSL, less than -0.25. For the substance ERPALSYEYYLRDFPYSFGG, the growth estimate is 0.211. To MVPVTMLRPVCKVGAILYLA belongs less than -0.25; to LDVSRTL, less than -0.25.

With AGMFSKFDGRLSLAGWLTDP, the growth estimate was -0.227. For PSA, the growth estimate was less than -0.25.

In the case of TGRIVSSGFLVD, the growth estimate is less than -0.25. On to GAFRISSPVRLKHIRSFSDV, for which the growth estimate was less than -0.25.

Take LEPE: the growth estimate is less than -0.25.

On to RHSLPCDLPIGHDGKSYTMI, for which the growth estimate is less than -0.25.
